For the assay, the target named is T1, human NgR(310)ecto-Fc (human) (UniProt Q9BZR6).
T1 sequence: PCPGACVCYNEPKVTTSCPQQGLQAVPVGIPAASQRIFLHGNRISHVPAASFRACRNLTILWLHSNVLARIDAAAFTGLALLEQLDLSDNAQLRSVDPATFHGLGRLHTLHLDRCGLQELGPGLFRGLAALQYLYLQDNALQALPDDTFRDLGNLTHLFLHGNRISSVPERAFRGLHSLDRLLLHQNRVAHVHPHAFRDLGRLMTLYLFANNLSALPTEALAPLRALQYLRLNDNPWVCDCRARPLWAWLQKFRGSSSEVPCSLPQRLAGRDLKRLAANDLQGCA
Description: AP-ligand binding to wells coated with NgR(310)ecto-Fc, ELISA format. On the technique in general: An ELISA detects its analyte on a solid surface through an enzyme-linked reagent.

Chains of the proteins cited; added tags and fusions are not shown. Residues count along the entry.
UniProt Q9NQC3, residues 1055-1087: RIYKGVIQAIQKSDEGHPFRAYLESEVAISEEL

Results are given in words; binding and its absence hold for the method and conditions named. Some results given as binding are weak or reduced against the parent protein; the word gives no strength. Sequences can lack the tags named with a protein.

For “AP-Nogo-66(1-33) (from UniProt Q9NQC3 1055-1087) (ligand)”, the binding entry is “binds”.

The record behind these values is patent publication US20120219567A1 (Biogen, published 2012).
